Results are given in words; binding and its absence hold for the method and conditions named. Binding seen in cells or lysates may run through a third protein. Some entries that bind do so weakly or less than the wild type.

The chains behind the UniProt entries cited, without tags or fusion partners.
UniProt P49841: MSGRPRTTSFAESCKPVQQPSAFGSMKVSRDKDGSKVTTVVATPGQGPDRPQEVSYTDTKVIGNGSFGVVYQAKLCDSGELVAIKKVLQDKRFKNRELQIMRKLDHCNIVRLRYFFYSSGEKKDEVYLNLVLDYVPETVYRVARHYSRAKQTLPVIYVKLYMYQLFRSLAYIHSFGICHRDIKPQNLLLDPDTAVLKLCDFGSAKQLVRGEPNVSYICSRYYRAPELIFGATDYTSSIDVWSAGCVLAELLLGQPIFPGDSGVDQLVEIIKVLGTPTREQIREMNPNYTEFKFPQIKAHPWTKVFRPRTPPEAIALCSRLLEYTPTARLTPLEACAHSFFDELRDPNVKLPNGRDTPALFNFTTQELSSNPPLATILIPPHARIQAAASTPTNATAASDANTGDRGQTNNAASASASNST

The target of the assay is T1, FOXM1 (human (in ovarian cancer cells)) (UniProt Q08050).
T1 sequence: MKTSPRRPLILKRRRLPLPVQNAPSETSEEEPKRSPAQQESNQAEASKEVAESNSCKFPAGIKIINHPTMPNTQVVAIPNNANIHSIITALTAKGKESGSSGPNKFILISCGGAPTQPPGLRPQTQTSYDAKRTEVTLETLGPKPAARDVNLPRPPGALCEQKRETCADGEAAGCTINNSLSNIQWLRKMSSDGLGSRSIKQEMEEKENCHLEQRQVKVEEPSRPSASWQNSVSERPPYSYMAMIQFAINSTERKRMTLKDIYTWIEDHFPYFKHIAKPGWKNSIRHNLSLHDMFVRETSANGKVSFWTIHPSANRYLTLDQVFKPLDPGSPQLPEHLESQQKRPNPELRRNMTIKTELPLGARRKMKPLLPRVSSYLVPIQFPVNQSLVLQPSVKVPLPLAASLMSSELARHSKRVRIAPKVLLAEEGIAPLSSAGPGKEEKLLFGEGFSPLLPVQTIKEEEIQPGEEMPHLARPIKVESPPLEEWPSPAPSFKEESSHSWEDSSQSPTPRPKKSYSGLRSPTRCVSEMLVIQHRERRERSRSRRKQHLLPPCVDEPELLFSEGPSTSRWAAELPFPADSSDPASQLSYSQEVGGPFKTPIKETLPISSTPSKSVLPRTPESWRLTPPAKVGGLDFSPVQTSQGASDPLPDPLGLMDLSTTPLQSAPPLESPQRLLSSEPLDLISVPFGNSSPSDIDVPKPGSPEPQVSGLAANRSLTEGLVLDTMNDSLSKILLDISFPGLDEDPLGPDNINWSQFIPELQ
As to the kind of experiment: co-IP; co-immunoprecipitation from ovarian cancer cells; bait, antibodies and cell line not told in the text (Fig. S4B, C).

With “GSK3β (from UniProt P49841 1-420) (enzyme)”, the binding entry is recorded as “binds”.

Values taken from PMC11170094.
